# Assay results: PubChem BioAssay AID2685 (National Center for Advancing Translational Sciences (NCATS), 2010)
# “And” between values parts separate entries of the source, which are not always exact repeats. Equal entries are not always repeated. The campaign covered roughly 320,000 compounds. About 2,100 (0.66%) were called active. The shares of active, inactive and inconclusive entries below differ from those in the screen. Calls follow the shape of the dose curve; as a rule, active = well fitted inhibition curve with a large enough effect in the signal ratio, with a control signal flat (not every such curve was filed as active); inconclusive = small, poorly fitted or top-dose-only effect, or effect the other way, or a change in a side signal; inactive = flat fitted curve, though single readings scatter; the % refers to the signal ratio. Where the call is inconclusive, the potency comes from a doubtful curve fit.
# Experiment: qHTS Assay for Lipid Storage Modulators in Drosophila S3 Cells
# Settings: BODIPY lipid droplet fluorescence, 18-24 h, cells fed with added oleic acid; lipid storage change, negative = inhibition: at 46.1 µM (top of the series) unless noted
# Summary of the method: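 Drosophila S3 cells loaded with oleic acid (400 uM, as added) and compounds at several concentrations; lipid droplets imaged by 488-nm laser-scanning cytometry, 500–530 nm intensity and object ratio to cell channel. Percent activity normalized to 20 uM Triacsin C.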
# % is scaled to controls: 0 for no effect and ±100 for the full control effect; potency is read from the fitted curve at half-maximal effect.
SMILES,Potency,"lipid storage change, negative = inhibition"
O=C(Nc1ccccc1Cl)/C(Cl)=C(\Cl)S(=O)c1ccccc1 (stereo unspecified),active: 4.61 µM,–
NC(=O)c1c(NC(=O)c2ccccc2Cl)sc2c1CCC2,"inconclusive: 6.51 µM [activator, single point]",–
NC(=O)N/N=C/c1cc(Br)ccc1OC(=O)c1ccccc1,"inconclusive: 6.51 µM [activator, single point]",–
COc1ccc(OCC(=O)N/N=C(\C)CC(=O)Nc2ccc(NC(C)=O)cc2)cc1,–,inconclusive: -29.9%
COc1ccccc1C(=O)NCCc1nc2ccccc2n1C,–,inconclusive: 23%
COc1cc(C(=O)NCC2(c3ccccc3)CCCC2)ccc1OC(C)C,–,inconclusive: 16.9%
COc1ccccc1OCCC(=O)OCC(=O)NC(=O)NC(C)(C)C,–,inconclusive: 8.83%
Cc1ccc(S(=O)(=O)N2CCCC(CCC(=O)NCc3ccccc3F)C2)s1 (stereo unspecified),–,inconclusive: -26.1%
NC(=O)CC(NC(=O)Cc1ccc(Cl)cc1)c1ccc(N2CCN(c3ccccn3)CC2)c([N+](=O)[O-])c1 (stereo unspecified),–,inconclusive: 35.5%
COc1ccc(NS(=O)(=O)c2c(C(=O)N3CCCCCC3)c(C)n(C)c2C)cc1,"inconclusive: 29.1 µM [falling, single point]",–
CCC(NC(=O)c1ccccc1NC(=O)C(C)(C)C)C(=O)N1CCCC1 (stereo unspecified),–,inconclusive: -78.8%
CCn1nc(C)c(/C=N/NC(=O)c2ccc3c(c2)c(C)c(C)n3Cc2ccccc2)c1C,"inconclusive: 0.13 µM [rising, full curve, poor fit]",–
Cc1ccc(OC(=O)Nc2ccccc2)cc1,–,inconclusive: -76.9%
COc1cc(C(=O)NNC(=S)Nc2ccc(S(N)(=O)=O)cc2)cc(OC)c1OC,–,inconclusive: 6.87%
Cc1ccc(/C=N/Nc2ncnc3nc[nH]c23)cc1,"inconclusive: 0.82 µM [activator, single point]",–
CCc1sc(C(=O)N2CCN(c3ccc(F)cc3)CC2)cc1C,"inconclusive: 3.26 µM [activator, full curve]",–
O=C(C1Cc2ccccc2CN1C(=O)c1ccco1)N1CCN(c2ccccc2)CC1 (stereo unspecified),–,inconclusive: -4.79%
CC(C)CC(=O)N1CCC(N(CCc2ccccc2)Cc2ccccc2)CC1,"inconclusive: 20.6 µM [falling, partial curve]",–
CCOC(=O)C1(CCc2ccccc2)CCN(Cc2cccc3nccnc23)CC1,–,inconclusive: -15.5%
CC(=O)c1cccc(N(CC(=O)Nc2ccccc2C(=O)N2CCCC2)S(C)(=O)=O)c1,–,inconclusive: 30.9%
O=C(c1ccccc1)C(Cn1cncn1)C(Sc1ccccc1)c1ccccc1 (stereo unspecified),"inconclusive: 23.1 µM [activator, partial curve]",–
COCCn1c(C)cc(/C=C2/NC(=O)N(c3ccc(Cl)cc3)C2=O)c1C,"inconclusive: 5.17 µM [activator, full curve]",–
COc1ccc(CCN(C)C(=O)CSc2nc3ncc(Cl)cc3[nH]2)cc1OC,"inconclusive: 0.13 µM [activator, single point]",–
COc1cccc(/C=C/C(=O)NNC(=O)CCN2CCN(Cc3ccccc3)CC2)c1,–,inconclusive: 19%
CC(=O)C1=C(C)N(Cc2ccccc2)C(=O)N[C@H]1CCc1ccccc1,–,inconclusive: 23.9%
O=c1oc2ccccc2cc1-c1csc(Nc2nc3c(F)cccc3s2)n1,"inconclusive: 23.1 µM [activator, single point]",–

# Entries above containing an aryl thioether with sulfur outside any ring (two):
SMILES,Potency,"lipid storage change, negative = inhibition"
O=C(c1ccccc1)C(Cn1cncn1)C(Sc1ccccc1)c1ccccc1 (stereo unspecified),"inconclusive: 23.1 µM [activator, partial curve]",–
COc1ccc(CCN(C)C(=O)CSc2nc3ncc(Cl)cc3[nH]2)cc1OC,"inconclusive: 0.13 µM [activator, single point]",–

# Next part

SMILES,Potency,"lipid storage change, negative = inhibition"
COc1ccc(/C=C2\SC(=O)N(CCc3nnc(N)s3)C2=O)cc1,–,inconclusive: 17.5%
COc1cc(/C=C2\C(=O)N(C)C(=S)N2C)ccc1O,–,inactive
Oc1ccc(-c2nccc(-c3ccc(F)cc3)n2)cc1,–,inconclusive: -20.4%
COc1ccc(C(C#N)c2ccc(=O)[nH]n2)cc1 (stereo unspecified),"inconclusive: 0.0651 µM [activator, full curve, poor fit]",–
O=C(COc1ccc(S(=O)(=O)N2CCOCC2)cc1Cl)NCC1CCCO1 (stereo unspecified),–,inconclusive: -77%
COc1ccc(NC(=O)N2CCCC(C(=O)NC(C)C)C2)cc1 (stereo unspecified),–,inactive
Cc1cccc2c(N=Nc3ccc(S(=O)(=O)Nc4cccc(Cl)c4)cc3[N+](=O)[O-])c(O)[nH]c12,"inconclusive: 25.9 µM [falling, single point]",–
COc1ccc(CC(=O)Nc2sc3c(c2C(N)=O)CCCC3)cc1OC,–,inconclusive: 24.5%
CNc1ccccc1C(C)(C)c1cn(-c2ccc([N+](=O)[O-])cc2)nn1,"inconclusive: 0.0046 µM [falling, full curve, poor fit]",–
COc1ccc(S(=O)(=O)N2CCCN(CC(=O)Nc3ccc4c(c3)OCO4)CC2)cc1,–,inconclusive: -23.7%
CN(CC(=O)Nc1ccc(F)c(F)c1F)C(=O)CCc1nc2sc3c(c2c(=O)[nH]1)CCCC3,–,inconclusive: 14.3%
Cn1ccnc1SCc1cc(=O)[nH]c2ccccc12,"inconclusive: 14.6 µM [activator, partial curve]",–
O=C(c1cccc(Cl)c1)N1CCN(c2ccc(N3CCOCC3)nn2)CC1,–,inconclusive
CCOC(=O)c1c(-c2cccc([N+](=O)[O-])c2)csc1NC(=O)CCCOc1ccccc1,–,inconclusive: -23.7%
C#CCOc1c(Cl)cc(/C=N/NC(N)=S)cc1OCC,–,inconclusive: 33.2%
Cc1ccccc1OCC(=O)N/N=C/c1cc2ccccc2nc1Cl,"inconclusive: 16.4 µM [activator, partial curve]",–
CCCCNC(=O)C1CCCN(S(=O)(=O)c2ccc(-n3cnnn3)cc2)C1 (stereo unspecified),–,inconclusive: -46.2%
CCCOP(=O)(c1ccc(N(C)C)cc1)C(O)c1cc(OC)c(OC)c(OC)c1 (stereo unspecified),–,inconclusive: -41.8%
CCn1c(O)c(/C=C2\C=Nc3ccccc32)sc1=Nc1ccccc1,"inconclusive: 0.082 µM [falling, full curve, poor fit]",–
Cc1cc(N)n2nc(-c3ccccc3)c(-c3ccccc3)c2n1,–,inconclusive: -1.23%
CCOC(=O)Cc1c(C)[nH]c(=S)[nH]c1=O,"inconclusive: 6.51 µM [falling, single point]",–
COCc1c(C(=O)OCC(=O)N(C)C2CCS(=O)(=O)C2)oc2ccccc12 (stereo unspecified),–,inconclusive: 13.3%
S=c1[nH]nc(CCc2ccccc2)n1Cc1ccccc1,–,inconclusive: -2.47%
CCC(C)/C(C)=N/NC(=O)C1COc2ccccc2O1 (stereo unspecified),–,inconclusive: -2.29%
CN1C(=O)c2cccc(NC(=O)CCc3ccccc3)c2C1=O,–,inactive
O=[N+]([O-])c1ccc(-c2cnc3ccccc3n2)cc1,"inconclusive: 1.84 µM [falling, partial curve]",–

SMILES,Potency,"lipid storage change, negative = inhibition"
COc1ccc(OC)c(CN2CCCC(C(=O)N3CCCCC3)C2)c1 (stereo unspecified),–,inconclusive: 8.5%
COCCC(=O)NC1CCCc2c1cnn2-c1cccc(C)c1C (stereo unspecified),"inconclusive: 18.4 µM [falling, single point]",–
CC(=O)Oc1ccc(/C=N\NC(=O)c2cc3c(ccc4ccccc43)o2)cc1,–,inconclusive: 11.7%
Cc1ccnc(NC(=O)CC(c2ccccc2)c2ccccc2)n1,–,inconclusive: 11.8%
CN(C(=O)c1ccccc1)c1ccccc1C(=O)NCCc1ccccc1,–,inconclusive: 5.13%
CN(C)S(=O)(=O)c1cccc(NC(=O)c2n[nH]c(=O)c3ccccc23)c1,–,inconclusive: 34.8%
COc1cccc(C(=O)OCC(=O)NCCCc2ccccc2)c1,–,inconclusive: 8.92%
CN(C)S(=O)(=O)c1ccc2nnn(OCC(=O)NC34CC5CC(CC(C5)C3)C4)c2c1,"inconclusive: 14.6 µM [falling, partial curve]",–
COc1cccc(CN(Cc2ccccc2F)S(=O)(=O)c2ccc(S(=O)(=O)NCc3ccccc3)cc2)c1,–,inconclusive: 31.5%
O=S(=O)(NC1CCCCC1N1CCC(O)CC1)c1ccccc1 (stereo unspecified),–,inconclusive: 267%
CC1(C)CC(=O)c2sc(NS(=O)(=O)c3ccc(Br)cc3)nc2C1,"inconclusive: 0.651 µM [falling, single point]",–
NS(=O)(=O)c1ccc(Nc2nc(-c3cccnc3)cs2)cc1,"inconclusive: 0.092 µM [activator, full curve, poor fit]",–
Cc1ccc(S(=O)(=O)N(C)C)cc1NC(=O)CN1C(=O)NC2(CCCc3ccccc32)C1=O (stereo unspecified),–,inconclusive: 4.83%
O=C(CN1C(=O)CC(c2ccccc2)=Nc2ccccc21)NC1CCCCC1,–,inconclusive: -10%
O=C(O)c1c(Cl)nc2ccccn12,active: 4.61 µM,–
CC(C)OC(=O)CSc1nnc2c(n1)[nH]c1ccc(F)cc12,–,inconclusive: 11.2%
COc1ccc(CCNC(=O)CSc2nc(-c3ccco3)cc(C(F)(F)F)n2)cc1OC,"inconclusive: 1.84 µM [activator, partial curve]",–
COc1cc2c(cc1OC)CN(C(=O)/C=C/c1ccc(F)cc1)CC2,–,inconclusive: 71.6%
Cc1nc(SCC(=O)NCc2ccco2)c2c3c(sc2n1)CCCC3,–,inconclusive: 6.45%
O=C(Oc1ccccc1)N1CCOCC1,"inconclusive: 0.0058 µM [falling, full curve, poor fit]",–
CN(C)CCCNCCCNC(=O)c1ccccn1,–,inconclusive: -41.3%
CCN1C(=NCCCCO)N[C@@H](c2cccc(C(F)(F)F)c2)C(C(=O)OC)=C1C,–,inconclusive: 33.8% and inconclusive: -4.19%
CC(C)COC(=O)c1ccccc1N1C(=O)C2C3CCC(C3)C2C1=O (stereo unspecified),–,inconclusive: 8.52%
COc1ccc(C(c2nnnn2C(C)(C)C)N2CCN(c3nc4ccccc4s3)CC2)cc1 (stereo unspecified),–,inconclusive: 4.58%
